Measurements from US5432175A, “Pyridine and pyridine N-oxide derivatives of diaryl methyl piperidines or piperazines, and compositions and methods of use thereof” (Schering Corporation, priority 1993, dated 1995).

Tested on: PAF-induced platelet aggregation
Experiment: Platelet Aggregation Assay (in vitro PAF antagonism, human platelet-rich plasma)
Assay type: cell-based
Details: 37° C., PAF 1-5×10^-8 M
Method: Platelet Aggregation Assay
Platelet-activating factor (PAF) causes aggregation of platelets by a receptor-mediated mechanism. Therefore, PAF-induced platelet aggregation provides a simple and convenient assay to screen compounds for PAF antagonism.
Blood was centrifuged at 110×g for 15 min. and the supernatant platelet-rich plasma (PRP) carefully transferred into a polypropylene tube. Platelet-poor-plasma (PPP) was prepared by centrifuging PRP at 12,000×g for 2 min. PRP was used within 3 hr. of drawing the blood.
PAF was dissolved in chloroform:methanol (1:1, v/v) at a concentration of 2 mg/ml and stored at -70° C. An aliquot of this solution was transferred to a polypropylene tube and dried under a flow of nitrogen gas. […] The solution was sonicated for 5 min. This stock solution was further diluted to appropriate concentrations in Hepes-saline-BSA buffer. Collagen and adenosine diphosphate (ADP) were purchased as solutions. […]
When an aggregating agent such as PAF is added to PRP, platelets aggregate. An aggregometer quantifies this aggregation by measuring and comparing light (infra-red) transmission through PPP and PRP. […] Values for inhibition were calculated by comparing rates of aggregation obtained in the absence and the presence of the compound. […]

`CCOC(=O)N1CCC(=C2c3ccc(Cl)cc3CCc3cccnc32)CC1` [reference compound] gave an IC50 of 175 µM.
